This assay has as its target butyrylcholine esterase (human (endogenous in plasma)) (UniProt P06276). Briefly: multiplexed sandwich immunoassay.

By UniProt entry, the sequences of proteins in these tests, tags left out. Residues count along the entry.
UniProt P06276, residues 29-602: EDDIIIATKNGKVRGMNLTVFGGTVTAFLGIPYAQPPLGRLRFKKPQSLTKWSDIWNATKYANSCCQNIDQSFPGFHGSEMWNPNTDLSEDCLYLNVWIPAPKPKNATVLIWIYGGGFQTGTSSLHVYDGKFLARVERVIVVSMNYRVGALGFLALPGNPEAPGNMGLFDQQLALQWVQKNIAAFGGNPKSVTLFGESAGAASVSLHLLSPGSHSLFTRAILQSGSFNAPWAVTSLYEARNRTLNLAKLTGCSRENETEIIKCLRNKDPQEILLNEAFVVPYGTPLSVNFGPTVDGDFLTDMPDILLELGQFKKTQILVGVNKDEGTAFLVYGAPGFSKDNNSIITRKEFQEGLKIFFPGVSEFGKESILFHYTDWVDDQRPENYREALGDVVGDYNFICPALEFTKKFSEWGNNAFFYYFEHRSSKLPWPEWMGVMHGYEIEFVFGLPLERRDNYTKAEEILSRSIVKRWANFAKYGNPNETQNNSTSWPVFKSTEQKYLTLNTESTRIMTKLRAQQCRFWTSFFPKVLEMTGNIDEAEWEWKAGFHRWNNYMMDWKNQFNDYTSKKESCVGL
UniProt P18065, residues 36-325: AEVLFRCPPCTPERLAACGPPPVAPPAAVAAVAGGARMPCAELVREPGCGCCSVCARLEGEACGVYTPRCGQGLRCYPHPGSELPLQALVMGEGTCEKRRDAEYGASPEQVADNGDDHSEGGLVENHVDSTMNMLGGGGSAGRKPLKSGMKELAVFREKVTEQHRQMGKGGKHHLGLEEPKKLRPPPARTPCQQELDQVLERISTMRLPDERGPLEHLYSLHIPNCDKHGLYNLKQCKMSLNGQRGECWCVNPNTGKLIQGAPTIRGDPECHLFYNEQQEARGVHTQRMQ

These are yes or no findings as the source states them, for the method shown. Some entries that bind do so weakly or less than the wild type.

Regarding “insulin growth factor binding protein 2 (from UniProt P18065 36-325)”, the binding entry is listed as “binds”.

These data come from doi:10.1101/158022.
